Data on 19 compounds can be found in the supplement of paper PMC12889115.

The list shows a part of the results. These are raw signals, not scaled to a control.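 Primary screen: polymyxin B was added at a level permeabilizing Salmonella outer membranes while sparing inner membranes. DMSO wells, both with and without polymyxin B, established maximum growth. Plate-to-plate variation meant each plate was ranked on its own, and the lowest-OD600 compounds were selected as hits.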

In the experiment the test system is Salmonella enterica serovar Typhimurium SL1344. Nature of the experiment: bacterial growth OD600 after 18 h with compound and polymyxin B; higher = more bacterial growth (less inhibition). Conditions: 50 µM, Mueller-Hinton broth.

With `CC(C)n1cc(C(=O)NC2CCCCCC2)c(=O)c(C(=O)N2CCSCC2)c1`, where the note is “polymyxin B 0.75 µg/mL”, the “bacterial growth OD600” value came to 0.888.
Regarding `O=C(Nc1ccc(Oc2cccnc2)cc1)C1CCN(Cc2ccccc2F)CC1`, the “bacterial growth OD600” value (polymyxin B 1 µg/mL) turned out to be 0.588.
For the compound `CC1(C)CC(C(=O)NCC2Cc3cc(-c4cccc(OC(F)(F)F)c4)ccc3O2)CCO1` (centres undefined), the “bacterial growth OD600” value (polymyxin B 0.75 µg/mL) was 0.012.
On the same count and under the same terms, in the case of `CC1CN(CC2CC2)Cc2cc(Cl)ccc2O1` (centres undefined) it was 0.786; in that of `O=C(NC1CCCC1)C1CCCN(C2CCN(Cc3ccccc3)CC2)C1` (centres undefined), 0.82.
On to `COC(=O)C1CCN(Cc2c(C(=O)N(C)CCc3ccccc3)nc3c(C)cccn23)CC1`, for which the “bacterial growth OD600” value (polymyxin B 1 µg/mL) turned out to be 1.02.
In the case of `Cc1cc2nc(N3CCC(C(=O)NCCOC(C)C)CC3)nc(C)c2cc1C`, the “bacterial growth OD600” value (polymyxin B 0.75 µg/mL) was 0.854.
Still for that read-out and setting: in the case of `COc1cc(CC2(CCC(=O)N(C)Cc3cc4ccccc4s3)CCC(=O)N2)ccc1F` (centres undefined) it was 0.755; in that of `CCOC(=O)N1CCC(N2CCCC(CNC(=O)CCc3ccccc3)C2)CC1` (centres undefined), 0.879; in that of `CO[C@H]1[C@H](NC(=O)CSC)c2ccccc2C12CCN(Cc1cnn(-c3ccc(F)cc3)c1)CC2`, 0.939.
On the same count and under the same terms, the same measure for `CCS(=O)(=O)Nc1cccc(N2CCC(NCc3cccc(OC(F)(F)F)c3)CC2)c1`: 0.799.
Turning to `COc1ccc(CC2CN(C(=O)CN3CCCCCC3)CCO2)cc1` (centres undefined), for the setting “polymyxin B 0.75 µg/mL”, the “bacterial growth OD600” value is 0.995.
In the case of `Cc1cccc(CNC2CC(=O)N(CCCc3ccccc3)C2)n1` (centres undefined), the “bacterial growth OD600” value (polymyxin B 1 µg/mL) was 0.968.
Take `Cc1oc(-c2cccc(NC(=O)CCc3cccnc3)c2)nc1CNC(=O)c1cc2cc(F)ccc2[nH]1`: where the note is “polymyxin B 0.75 µg/mL”, the “bacterial growth OD600” value stood at 0.571.
Same read-out and setting: the same measure for `CC(C)(CO)CN1CCCC(C(=O)Nc2ccccc2Oc2cccnc2)C1` (centres undefined): 0.779.
On to `O=C(NCc1cccnc1N1CCc2ccccc2C1)c1cscn1`, for which the “bacterial growth OD600” value (polymyxin B 0.75 µg/mL) came out at 0.712.
Regarding `CCOC(c1ccccc1)c1ccc2c(c1)CN(Cc1c(C)n(C)n(-c3ccccc3)c1=O)CCO2` (centres undefined), the “bacterial growth OD600” value (polymyxin B 0.75 µg/mL) turned out to be 0.779.
Still for that read-out and setting: the same measure for `NC(=O)[C@@H]1CCCN1C1CCN(c2cccc(NS(=O)(=O)c3ccc(F)cc3)c2)CC1`: 0.814.
As to `O=C(Cn1cccn1)N1CCC2(CCCN(CC3CCCCC3)C2=O)C1` (centres undefined), for the setting “polymyxin B 1 µg/mL”, the “bacterial growth OD600” value stood at 1.01.
